The values are deposited in ChEMBL (CHEMBL3988442, “University of Dundee, Small-Polar-MMV Screening Library” (2021)).

Protein sequences, listed by entry. Tags and fused reporters are not part of them. Residues count along the entry.
UniProt P9WNZ1, whole entry: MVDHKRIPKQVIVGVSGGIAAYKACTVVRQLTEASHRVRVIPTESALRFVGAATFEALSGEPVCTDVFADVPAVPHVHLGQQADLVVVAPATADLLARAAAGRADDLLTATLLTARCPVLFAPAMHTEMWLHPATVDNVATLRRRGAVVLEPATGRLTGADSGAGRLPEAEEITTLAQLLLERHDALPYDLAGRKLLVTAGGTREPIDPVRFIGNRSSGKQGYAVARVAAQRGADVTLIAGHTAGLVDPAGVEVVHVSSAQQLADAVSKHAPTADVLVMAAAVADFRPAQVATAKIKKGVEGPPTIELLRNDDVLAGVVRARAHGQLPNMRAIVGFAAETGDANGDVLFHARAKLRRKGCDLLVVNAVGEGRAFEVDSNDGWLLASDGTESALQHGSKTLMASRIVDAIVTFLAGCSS
UniProt Q4DA54, 1-478: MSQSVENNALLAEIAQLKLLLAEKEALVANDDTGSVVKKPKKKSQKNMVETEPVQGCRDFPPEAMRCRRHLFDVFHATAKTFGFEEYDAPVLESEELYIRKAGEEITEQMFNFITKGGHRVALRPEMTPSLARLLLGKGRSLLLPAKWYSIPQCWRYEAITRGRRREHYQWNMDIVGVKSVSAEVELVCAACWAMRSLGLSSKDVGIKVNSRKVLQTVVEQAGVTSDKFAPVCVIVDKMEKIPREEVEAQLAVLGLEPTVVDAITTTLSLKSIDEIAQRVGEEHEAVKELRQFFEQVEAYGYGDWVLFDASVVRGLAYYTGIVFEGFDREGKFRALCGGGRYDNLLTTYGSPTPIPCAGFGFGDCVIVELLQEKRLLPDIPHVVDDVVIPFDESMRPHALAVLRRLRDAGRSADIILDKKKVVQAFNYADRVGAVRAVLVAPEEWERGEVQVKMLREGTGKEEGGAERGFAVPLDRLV

A: 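Coenzyme A biosynthesis protein CoaBC, Mycobacterium tuberculosis (UniProt P9WNZ1). Enzyme assay of CoaBC with a phosphate dye (Biomol Green) read at 650 nm. Concentration: 30 µM. Higher reads as stronger inhibition, judged from the few compounds that gave an IC50. Most strong results did not repeat in a second test. Size under these conditions: about 67,000 compounds, about 40 of them at 50% or above in at least one test.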
B: 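Histidine-tRNA ligase, Trypanosoma cruzi CL Brener (UniProt Q4DA54). Enzyme assay of histidyl-tRNA synthetase; the read-out is not stated. Tested at 30 µM. The record gives no direction; compounds that gave an IC50 in retests scored well above the rest, so higher reads as stronger inhibition. Of about 69,000 compounds tested this way, about 31 (0.045%) reached 50% or more in at least one test.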

Values are the deposited “Percent Effect”, in %.
The record does not define 0% and 100%; most values in the screen are far below 50% and negative numbers occur (in some assays of this library far below -100).
This is an unselected part of the compounds tested.
A dash means the value is not listed here; it may have been measured.

compound,A,B
CN(C(=O)NCc1nccn1CCc1ccccc1)C1CCC1,6.821%,3.509%
Cc1ccc(C(=O)N2C[C@@H](OCc3cccnc3)[C@H]3OCCC[C@@H]32)o1,6.157%,2.4%
CCCOc1ccc(CN)c(OC(F)F)c1,7.2%,-3.448%
CN(Cc1nnc2n1CCC2)S(=O)(=O)c1ccc(Br)cc1Cl,-1.491%,-2.564%
CN(C)C(=O)N1CCN(Cc2nc3ccccc3[nH]2)[C@H]2CS(=O)(=O)C[C@H]21,0%,4.348%
Cc1n[nH]c(C)c1CNC(=O)NC1CCCN(c2ccccc2F)C1 (centres undefined),1.582%,4.433%
CN(CCc1ccc(F)cc1)Cc1nc2c(cnn2C)c(=O)[nH]1,7.846%,2.273%
CC(C)OCCCNC(=O)CN1CCC(N2CCN(C)C2=O)CC1,1.542%,3.008%
CCc1cn[nH]c1C1CCN(C(=O)c2cc(C(C)=O)c(C)[nH]c2=O)CC1,0.4348%,11.23%
Cc1noc(C)c1C(=O)N1C[C@@H]2C[C@@H](c3ccncn3)O[C@@H]2C1,3.782%,4.132%
Cc1cccn2cc(CN3CCC(N4CCN(C)C4=O)CC3)nc12,3.899%,7.143%
COCCC1(CO)CCCN(Cc2ccc(C(F)(F)F)nc2)C1 (centres undefined),-7.477%,7.609%
CN(Cc1cccnc1)C[C@H]1OC[C@@H]2CCN(c3ncccn3)C[C@@H]21,1.478%,-3.093%
CCC(C)n1cnc(S(=O)(=O)N(Cc2cccnc2)C(C)C)c1 (centres undefined),-2.696%,5.952%
O=C(NCC1CCC1)c1cccc(CN2CCS(=O)(=O)CC2)c1,3.753%,5.941%
CN(C)c1ccccc1C(=O)N1CCOC2(CNCCOC2)C1 (centres undefined),1.327%,1.508%
CC(C)CC(NC(=O)C1=CCCC1)C(=O)N1CCC(CO)CC1 (centres undefined),9.163%,-2.105%
Cc1cnn(CC2CCCCN2CC(=O)NCc2ccccn2)c1 (centres undefined),-2.834%,1.087%
CC(C)NC(=O)N1CCCCCC1C1CCN(c2ncccn2)CC1 (centres undefined),-1.106%,9.524%
CC(=O)NC(c1cc(F)ccc1F)C1CC1 (centres undefined),-,7.792%
CN(CC(F)(F)F)C(=O)CNC(=O)N1CCCC(N(C)C)C1 (centres undefined),2.427%,4.95%
CC(C)=CCN1C[C@H]2CC[C@@H]1CN(C(=O)Cc1c(C)nc(C)[nH]c1=O)C2,1.717%,-3.488%
O=S1(=O)N(c2ccccc2)C[C@@H](O)[C@]12CCNC2,1.595%,3.468%
COC(=O)C1C=CCN1C(=O)c1cc(COc2ccccc2)[nH]n1 (centres undefined),-3.951%,10.45%
Cc1ccccc1OC(C(=O)N1CCC2(CC1)CN(C)C(=O)O2)C(C)C (centres undefined),-0.8065%,5.028%
CC(NC(=O)Nc1nccs1)c1ccc(S(C)(=O)=O)cc1 (centres undefined),4.472%,-0.5128%
CC(=O)N1CCN(C(=O)NCc2cccnc2OC(C)C)CC1,4.337%,0.5848%
CC(C)C(=O)NC1CCCc2nc(N3CCOCC3)ncc21 (centres undefined),-0.7353%,1.064%
Cc1c(-c2nnc(SCC(=O)O)n2C(C)c2ccccc2)cnn1C (centres undefined),5.383%,0%
CC(C)NC(=O)NC(C)c1ccc(-c2ccncc2)cc1 (centres undefined),11.51%,-18.97%
CC1=CCN(C(=O)Nc2ccccc2N2CCOC2=O)CC1,3.498%,0.5236%
O=C(c1ccc(-c2ccc(O)nc2)s1)N1CCSCC1,11.09%,2.609%
CCCc1n[nH]c(C2CN(Cc3nnc(C4CC4)o3)CCO2)n1 (centres undefined),-4.37%,1.504%
NC(=O)c1cnc(NCC(=O)NCc2ccco2)c(Cl)c1,1.463%,5.882%
Brc1csc(-c2noc(C3COCCO3)n2)c1 (centres undefined),-16.19%,6.383%
CN(C)CCN1CC2(CCCN(c3ncc(Cl)cc3F)C2)CCC1=O (centres undefined),5.288%,10.13%
CC(C)c1nc2c(n1C)CCN(CC(=O)Nc1ccncc1)C2,3.133%,6.122%
CS(=O)(=O)NCC(Cc1cccc(F)c1)N1CCNC1=O (centres undefined),1.018%,4.819%
Clc1ccccc1C1(c2ccnc(C3CC3)n2)CCNCC1,2.284%,5.83%
Cc1cc(C(=O)NCc2ccc(N3CCN(C)CC3)nc2)c(C)s1,5.371%,8.235%
Cn1cc(N2CCC3(CCCN(Cc4ccoc4)C3)C2=O)cn1 (centres undefined),3.043%,10.92%
CSc1nnc(C2CCN(C(=O)N3CCCC3)CC2)n1C(C)C,-1.914%,-1.916%
COc1ccc(F)cc1-c1ccccc1CC1CNCCNC1=O (centres undefined),-4.358%,5.085%
CN(CC(=O)NCC(C)(C)c1ccc2c(c1)OCO2)c1cnccn1,0.6424%,4.712%
COc1ccc(C)cc1S(=O)(=O)NCCC(O)c1ccccc1 (centres undefined),-2.037%,8.995%
O=C(C1CCCc2[nH]ncc21)N1CCCC1 (centres undefined),-2.643%,0.8475%
Cc1nc(N2CCN3CCCCC3C2)nc2cc(S(C)(=O)=O)ccc12 (centres undefined),11%,-2.186%
O=C(c1cc(C2CCCCN2C(=O)C2CCC2)n[nH]1)N1CCOCC1 (centres undefined),1.225%,10.64%
CNc1ccc(Cl)cc1C(=O)N1CCC(Cn2cc(CN)nn2)CC1,-2.785%,3.96%
CCc1ccc(CC(=O)N2CCN(c3nccn3C)CC2)cc1,-0.1203%,3.518%
CN(C)C(=O)C(C)(C)c1ccc2c(c1)OCCO2,-,6.579%
COCC(=O)N1CCC(Cc2nccnc2-c2c(C)n[nH]c2C)C1 (centres undefined),-0.4843%,3.333%
Cc1nc(CN2CCC3(CCN(Cc4cnn(C)c4)C3)C2=O)cs1 (centres undefined),2.589%,0.9524%
CC1=C[C@@H](CC#N)[C@H](C(C)C)C[C@H]1CC(=O)N1CCN(C)CC1,-2.935%,0.9901%
CN1CCC(N2CCC(c3ccccc3C(=O)O)C2)CC1 (centres undefined),3.306%,1.734%
Cc1cccc(CN2C[C@@H](CN3CCCN(C)CC3)C[C@H](CO)C2)n1,-,6.494%
O=C(NCCn1cnc(C2CCCC2)cc1=O)NCc1cccs1,0.6342%,-2.062%
CCc1nc(C(=O)N2CC(C)CN(C)c3ccccc32)c[nH]1 (centres undefined),-2.915%,3.017%
O=S1(=O)C[C@@H]2[C@H](C1)N(Cc1cc(F)cc(Cl)c1)CCN2CCO,6.813%,7.216%
COCc1ncc(CN2C[C@@H](C(=O)O)[C@H](C(C)C)C2)cn1,-3.178%,4.372%
CCn1ccnc1CNC1CC(=O)N(CCc2cccc(Cl)c2)C1 (centres undefined),-3.393%,2.01%
Cc1cn2nc(N3CCCC3Cn3nc(C)cc3C)sc2n1 (centres undefined),11.23%,2.632%
O=C(c1ccoc1)N1CCOCC2(CCN(C3CCOCC3)C2)C1 (centres undefined),0.7519%,1.22%
CCOCC(=O)Nc1ncc(I)cc1C,7.171%,4.211%
Cn1cc(NC(=O)NCc2ccoc2)ccc1=O,-,72.73%
CCC(C)C(=O)NCc1cccc(N2CCCCC2=O)c1 (centres undefined),-2.376%,-5.882%
O=C(CCS(=O)(=O)C1CCCC1)NCCc1ccc2c(c1)OCCO2,6.892%,1.948%
CC(C)Oc1ccc(C(O)CNCc2ccccc2C(F)(F)F)cc1 (centres undefined),-15.07%,7.937%
CC(C)=CCN1CCC2(CC1)CC(=O)N(Cc1cc(F)cc(F)c1)C2,-2.286%,2.513%
Cc1ccc(CN(Cc2c[nH]cn2)C2CC(C)(C)NC(C)(C)C2)o1,0.8333%,0.5405%
COc1ccc(CCNCc2c(C)nn(C)c2N(C)C)cc1OC,1.513%,9.012%
O=C(Cc1cccs1)N1CCC2(CC1)COCCN2CC1CC1,3.893%,8.046%
Oc1ccc(-c2c(-c3ccccc3)ncn2C2CCNC2)cc1 (centres undefined),-20.4%,6.897%